# Source: PubChem BioAssay AID256 (DTP/NCI, 2004)
# The list is a part of this screen's results and no random one: it gathers tests that were run many times, whatever their T/C, doses with no T/C, and many T/C values between a quarter and a half above the control. Further doses and runs are listed elsewhere. T/C: endpoint of the treated group in % of that of the vehicle group. Some entries give survivors of the animals treated and no T/C: the source files T/C as zero there, which appears to mark a toxic dose or a test without result, not a measured value. Some doses without a T/C left all or most animals alive at the check, yet need not have been tolerated: the source hardly ever lists a survival T/C far under the control, and the zero likely stands for such cases as well. Counts of survivors are from the toxicity check (mostly the fifth day) where no day follows; animals may have died later. Schedule codes are those of the source, read here as Q, the interval in days (D) or hours (H), X, the number of doses. Some schedule codes hold Z or #, which are not explained here. Where survival is the endpoint, this PubChem deposit counts one and a half times the control or more as active, and values a quarter to a half above the control carry no call in these data; other NCI protocols may use other cut-offs. Some entries were tested several times; their values stand side by side, smallest first. Some T/C values are followed by the survivors on the day toxicity was checked, most often the fifth; where none is given, no animal had died by that day.
# Tested on: CD2F1 mice, L1210 leukemia ip, survival T/C
# Assay: NCI In Vivo Anticancer Drug Screen. Data for tumor model L1210 Leukemia (intraperitoneal) in CD2F1 (CDF1) mice
# Conditions: higher T/C = longer survival
# Procedure, shortened: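 Mice carrying a transplanted tumor received test compound or vehicle alone. The value is the measurement in the treated group divided by that in the vehicle-treated control group.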
# [1] = T/C endpoint: mean survival time, dose: 400.0 mg/kg/injection, schedule: Q04DX003 (ip), vehicle: saline with Tween-80
# [2] = T/C endpoint: mean survival time, dose: 400.0 mg/kg/injection, schedule: Q01DX009 (ip), vehicle: saline with Tween-80
# [3] = T/C endpoint: mean survival time, dose: 200.0 mg/kg/injection, schedule: Q01DX009 (ip), vehicle: saline with Tween-80
# [4] = T/C endpoint: mean survival time, dose: 100.0 mg/kg/injection, schedule: Q01DX001 (ip), vehicle: saline
# [5] = T/C endpoint: mean survival time, dose: 200.0 mg/kg/injection, schedule: Q01DX001 (ip), vehicle: saline
# [6] = T/C endpoint: mean survival time, dose: 400.0 mg/kg/injection, schedule: Q01DX001 (ip), vehicle: saline
# [7] = T/C endpoint: mean survival time, dose: 150.0 mg/kg/injection, schedule: Q01DX001 (ip), vehicle: saline
# [8] = T/C endpoint: mean survival time, dose: 300.0 mg/kg/injection, schedule: Q01DX001 (ip), vehicle: saline
# [9] = T/C endpoint: mean survival time, dose: 50.0 mg/kg/injection, schedule: Q01DX009 (ip), vehicle: saline with Tween-80
# [10] = T/C endpoint: mean survival time, dose: 100.0 mg/kg/injection, schedule: Q01DX009 (ip), vehicle: saline with Tween-80
# [11] = T/C endpoint: mean survival time, dose: 200.0 mg/kg/injection, schedule: Q04DX003 (ip), vehicle: saline with Tween-80
# [12] = T/C endpoint: mean survival time, dose: 100.0 mg/kg/injection, schedule: Q01DX001 (ip), vehicle: Klucel (hydroxypropylcellulose) (HPC)
structure (smiles),measurement,setting,value
CC1=C(Br)C(=O)C(C(O)(C(F)(F)F)C(F)(F)F)C(C)(C)C1 (stereo unspecified),survivor count,[1],4 of 6
NCc1ccc(OCc2nc(N)nc(N)c2-c2ccc(Cl)c(Cl)c2)cc1,survivor count,"T/C endpoint: mean survival time, dose: 400.0 mg/kg/injection, schedule: Q01DX001 (ip), vehicle: saline with Tween-80",0 of 6
COc1cc2c(cc1OC)C(CC(C)C)=[N+](C)CC2,survivor count,"T/C endpoint: mean survival time, dose: 200.0 mg/kg/injection, schedule: Q04DX002 (ip), vehicle: saline with Tween-80",3 of 3
same,survivor count,"T/C endpoint: mean survival time, dose: 400.0 mg/kg/injection, schedule: Q04DX002 (ip), vehicle: saline with Tween-80",1 of 3
CS(C)=O.[Cl-].[Cl-].[NH-]CC(O)C[N-]CC(O)CN.[Pt+4] (stereo unspecified),survivor count,"T/C endpoint: median survival time, dose: 100.0 mg/kg/injection, schedule: Q04DX003 (ip), vehicle: saline",6 of 6
same,survivor count,"T/C endpoint: median survival time, dose: 200.0 mg/kg/injection, schedule: Q04DX003 (ip), vehicle: saline",3 of 6
CC(=O)CC(OC(C)=O)(C(F)(F)F)C(F)(F)F,survivor count,"T/C endpoint: mean survival time, dose: 100.0 mg/kg/injection, schedule: Q04DX002 (ip), vehicle: saline",2 of 3
same,survivor count,"T/C endpoint: mean survival time, dose: 200.0 mg/kg/injection, schedule: Q04DX003 (ip), vehicle: Klucel (hydroxypropylcellulose) (HPC)",1 of 6
same,survivor count,"T/C endpoint: mean survival time, dose: 400.0 mg/kg/injection, schedule: Q04DX003 (ip), vehicle: Klucel (hydroxypropylcellulose) (HPC)",0 of 6
C1OCN2CSCC12 (stereo unspecified),survivor count,[2],3 of 6
Nc1ncnc(N)c1N=O,survivor count,[1],6 of 6
Cc1ccc(NC(=O)N(CCCl)N=O)c(C)c1,T/C,"T/C endpoint: mean survival time, dose: 1.9 mg/kg/injection, schedule: Q01DX009 (ip), vehicle: other",135 % of control
same,T/C,"T/C endpoint: mean survival time, dose: 2.9 mg/kg/injection, schedule: Q01DX009 (ip), vehicle: other",141 % of control
same,T/C,"T/C endpoint: mean survival time, dose: 22.0 mg/kg/injection, schedule: Q01DX001 (ip), vehicle: other",140 % of control
Cc1ccc(N)cc1 (tested in a mixture with another compound),T/C,"T/C endpoint: mean survival time, dose: 50.0 mg/kg/injection, schedule: Q04DX003 (ip), vehicle: saline with Tween-80",129 % of control
same,survivor count,[1],3 of 3
CC(C)CC#N,survivor count,[3],3 of 6
same,survivor count,[2],0 of 6
O=S(=O)(n1ccnc1)C(F)(F)F,survivor count,[4],0 of 6
same,survivor count,[5],0 of 6
same,survivor count,[6],0 of 6
N#Cc1cn(C2OC(CO)C(O)C2O)c2nc(NN)nc(N)c12 (stereo unspecified),survivor count,"T/C endpoint: mean survival time, dose: 200.0 mg/kg/injection, schedule: Q01DX005 (ip), vehicle: water",4 of 6
C/C=C1\OC(n2cnc3c(N)ncnc32)C(O)C1O (stereo unspecified),T/C,"T/C endpoint: mean survival time, dose: 200.0 mg/kg/injection, schedule: Q01DX005 (ip), vehicle: distilled water + Tween-80",134 % of control [4 of 6 alive]
same,survivor count,"T/C endpoint: mean survival time, dose: 400.0 mg/kg/injection, schedule: Q01DX009 (ip), vehicle: distilled water + Tween-80",0 of 6
CO[C@@]12[C@@H]3N[C@@H]3CN1C1=C(C(=O)C(N(C)c3ccc(O)cc3)=C(C)C1=O)[C@@H]2COC(N)=O,T/C,"T/C endpoint: median survival time, dose: 24.0 mg/kg/injection, schedule: Q01DX001 (ip), vehicle: distilled water + Tween-80",136 % of control
same,T/C,"T/C endpoint: median survival time, dose: 48.0 mg/kg/injection, schedule: Q01DX001 (ip), vehicle: distilled water + Tween-80",133 % of control
same,T/C,"T/C endpoint: median survival time, dose: 96.0 mg/kg/injection, schedule: Q01DX001 (ip), vehicle: distilled water + Tween-80",141 % of control
CCCCSC#N,survivor count,"T/C endpoint: mean survival time, dose: 25.0 mg/kg/injection, schedule: Q01DX001 (ip), vehicle: saline",0 of 3
same,survivor count,"T/C endpoint: mean survival time, dose: 50.0 mg/kg/injection, schedule: Q01DX001 (ip), vehicle: saline",0 of 3
same,survivor count,[4],0 of 3
same,survivor count,[5],0 of 3
same,survivor count,[6],0 of 3
COC(=O)Nc1nc2ccc(SC)cc2c(=O)[nH]1,survivor count,"T/C endpoint: median survival time, dose: 400.0 mg/kg/injection, schedule: Q01DX009 (ip), vehicle: Klucel (hydroxypropylcellulose) (HPC)",4 of 6
O=C(O)/C=C/S(=O)(=O)O,survivor count,[7],1 of 6
same,survivor count,[8],0 of 6
Cc1cc(Cl)ccc1NC(=O)N1CCCC(C)C1 (stereo unspecified),survivor count,[9],3 of 3
same,survivor count,[10],3 of 3
same,survivor count,[3],3 of 3
N#CC1CCCC1=N (stereo unspecified),survivor count,[9],6 of 6
same,survivor count,"T/C endpoint: mean survival time, dose: 100.0 mg/kg/injection, schedule: Q04DX003 (ip), vehicle: saline with Tween-80",3 of 6
same,survivor count,[11],0 of 6
same,survivor count,[1],0 of 6
CCN(CC)CC(C)(C)CO,survivor count,[1],0 of 6
CCCCCCCCCCCCCCCCCC(=O)NCC[N+](C)(C)C,survivor count,"T/C endpoint: mean survival time, dose: 75.0 mg/kg/injection, schedule: Q01DX001 (ip), vehicle: saline",2 of 6
same,survivor count,[7],0 of 6
same,survivor count,[8],0 of 6
Cc1[nH]c2ccccc2c1C(c1cc(Cl)cc(Cl)c1O)c1c(C)[nH]c2ccccc12,survivor count,[10],3 of 3
same,survivor count,[2],3 of 3
C1CCC2CCCN2CC1 (stereo unspecified),survivor count,[9],3 of 6
CCOC(=O)Nc1cc2c(c(N)n1)N=C(CN(C)c1ccc(OC)cc1)CN2,T/C,"T/C endpoint: mean survival time, dose: 1.56 mg/kg/injection, schedule: Q01DX009 (ip), vehicle: Klucel (hydroxypropylcellulose) (HPC)",127 % of control
same,T/C,"T/C endpoint: mean survival time, dose: 3.13 mg/kg/injection, schedule: Q01DX009 (ip), vehicle: Klucel (hydroxypropylcellulose) (HPC)",136 and 137 % of control
same,T/C,"T/C endpoint: mean survival time, dose: 6.25 mg/kg/injection, schedule: Q01DX009 (ip), vehicle: Klucel (hydroxypropylcellulose) (HPC)",130 % of control
same,survivor count,"T/C endpoint: mean survival time, dose: 12.5 mg/kg/injection, schedule: Q01DX009 (ip), vehicle: Klucel (hydroxypropylcellulose) (HPC)",4 of 4
same,T/C,"T/C endpoint: mean survival time, dose: 25.0 mg/kg/injection, schedule: Q01DX001 (ip), vehicle: Klucel (hydroxypropylcellulose) (HPC)",129 % of control
same,survivor count,"T/C endpoint: mean survival time, dose: 25.0 mg/kg/injection, schedule: Q01DX009 (ip), vehicle: Klucel (hydroxypropylcellulose) (HPC)",3 of 4
same,T/C,"T/C endpoint: mean survival time, dose: 50.0 mg/kg/injection, schedule: Q01DX001 (ip), vehicle: Klucel (hydroxypropylcellulose) (HPC)",135 % of control [5 of 6 alive]
same,T/C,[12],146 % of control
same,survivor count,[12],3 of 6
same,survivor count,"T/C endpoint: mean survival time, dose: 200.0 mg/kg/injection, schedule: Q01DX001 (ip), vehicle: Klucel (hydroxypropylcellulose) (HPC)",3 of 6
same,survivor count,"T/C endpoint: mean survival time, dose: 400.0 mg/kg/injection, schedule: Q01DX001 (ip), vehicle: Klucel (hydroxypropylcellulose) (HPC)",1 of 6
CN(C)N=Nc1ccc(C(N)=O)cc1C(N)=O,T/C,"T/C endpoint: mean survival time, dose: 150.0 mg/kg/injection, schedule: Q01DX009 (ip), vehicle: Klucel (hydroxypropylcellulose) (HPC)",139 and 148 % of control
COB(C1CCCCC1)C1CCCCC1,survivor count,"T/C endpoint: mean survival time, dose: 400.0 mg/kg/injection, schedule: Q01DX009 (ip), vehicle: other",5 of 6
Cc1cc(NC(=O)Nc2ccc(C3=NCCCN3)cc2)ccc1NC(=O)Nc1ccc(C2=NCCCN2)cc1,survivor count,"T/C endpoint: mean survival time, dose: 62.0 mg/kg/injection, schedule: Q01DX Z (ip), vehicle: water",0 of 6
same,survivor count,"T/C endpoint: mean survival time, dose: 125.0 mg/kg/injection, schedule: Q01DX Z (ip), vehicle: water",1 of 6
same,survivor count,"T/C endpoint: mean survival time, dose: 250.0 mg/kg/injection, schedule: Q01DX Z (ip), vehicle: water",0 of 6
same,survivor count,"T/C endpoint: mean survival time, dose: 500.0 mg/kg/injection, schedule: Q01DX Z (ip), vehicle: water",0 of 6
O=c1[nH]cc[nH]1,T/C,"T/C endpoint: mean survival time, dose: 400.0 mg/kg/injection, schedule: Q01DX009 (ip), vehicle: saline",132 % of control
Cc1ccccc1NC(=O)CC#N,survivor count,[10],3 of 3
same,survivor count,[3],3 of 3
same,survivor count,[2],2 of 3
Nc1ccnnc1,survivor count,"T/C endpoint: mean survival time, dose: 400.0 mg/kg/injection, schedule: Q04DX003 (ip), vehicle: saline",0 of 6
N#Cc1cn(C2OC(CO)C(O)C2O)c2ncnc(N)c12 (stereo unspecified),T/C,"T/C endpoint: mean survival time, dose: 0.25 mg/kg/injection, schedule: Q01DX009 (ip), vehicle: saline",134 % of control
same,survivor count,"T/C endpoint: mean survival time, dose: 2.0 mg/kg/injection, schedule: Q01DX009 (ip), vehicle: saline",6 of 6
O=C(CC(O)(C(F)(F)F)C(F)(F)F)C(=O)c1ccc([N+](=O)[O-])cc1,survivor count,[2],2 of 6
CCC1CCCCN1C (stereo unspecified),survivor count,[11],0 of 6
same,survivor count,[1],0 of 6
